Data as given in PubChem BioAssay AID1224830 (NIAID, 2016).
In all, the deposit lists about 18,000 reagents; this is a random part of them. About 2,900 of them (16%) were called active. 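Calls are made per well; low scores hint the gene aids the LPS response, high scores that it dampens it.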 Repeated entries: four replicate wells of each siRNA pool.

Screen: 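Host factors that control LPS-induced TNF expression in human macrophages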 (primary screen)
System: human THP-1 monocytic leukaemia cells, TNF dual-luciferase reporter clone, PMA-differentiated to macrophage-like cells
Knock-down reagent: siRNA pool against human genes, 50 nM
Time to read-out: LPS for 4 h, given about 3 days after siRNA transfection
Conditions: bacterial LPS (TLR4 ligand), 10 ng/ml
Detection: 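Ratio of firefly to renilla light, scaled to the plate median and expressed as a robust z-score per replicate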
Reading the numbers: TNF reporter robust z-score: higher = stronger TNF reporter response to LPS
Call rule: 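Each well counts as active if its z-score is over 2.8 or under -1.5; controls are left without a call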

gene | TNF reporter robust z-score | Outcome
SNAP29 (GeneID 9342) | 0.33 | inactive
SNAP29 (GeneID 9342) | 0.88 | inactive
SNAP29 (GeneID 9342) | 0.9 | inactive
SNAP29 (GeneID 9342) | 0.59 | inactive
CCDC141 (GeneID 285025) | 2.17 | inactive
CCDC141 (GeneID 285025) | 1.53 | inactive
CCDC141 (GeneID 285025) | -0.69 | inactive
CCDC141 (GeneID 285025) | 2.32 | inactive
NOA1 (GeneID 84273) | -1.04 | inactive
NOA1 (GeneID 84273) | -1.29 | inactive
NOA1 (GeneID 84273) | -0.88 | inactive
NOA1 (GeneID 84273) | -0.68 | inactive
MYBPC1 (GeneID 4604) | 1.15 | inactive
MYBPC1 (GeneID 4604) | 1.5 | inactive
MYBPC1 (GeneID 4604) | -0.49 | inactive
MYBPC1 (GeneID 4604) | 1.55 | inactive
TMED5 (GeneID 50999) | -0.44 | inactive
TMED5 (GeneID 50999) | -0.7 | inactive
TMED5 (GeneID 50999) | 0.06 | inactive
TMED5 (GeneID 50999) | -0.17 | inactive
VDAC2 (GeneID 7417) | -0.37 | inactive
VDAC2 (GeneID 7417) | -0.91 | inactive
VDAC2 (GeneID 7417) | -0.06 | inactive
VDAC2 (GeneID 7417) | -0.17 | inactive
IDH3A (GeneID 3419) | -0.29 | inactive
IDH3A (GeneID 3419) | -0.93 | inactive
IDH3A (GeneID 3419) | -0.48 | inactive
IDH3A (GeneID 3419) | -0.99 | inactive
KRT5 (GeneID 3852) | -0.41 | inactive
KRT5 (GeneID 3852) | -0.17 | inactive
KRT5 (GeneID 3852) | -0.28 | inactive
KRT5 (GeneID 3852) | -0.72 | inactive
TOB2 (GeneID 10766) | 1.29 | inactive
TOB2 (GeneID 10766) | 1.06 | inactive
TOB2 (GeneID 10766) | -0.37 | inactive
TOB2 (GeneID 10766) | 0.55 | inactive
EIF2B3 (GeneID 8891) | -0.53 | inactive
EIF2B3 (GeneID 8891) | -0.68 | inactive
EIF2B3 (GeneID 8891) | -0.88 | inactive
EIF2B3 (GeneID 8891) | -1.31 | inactive
SCAMP5 (GeneID 192683) | -0.82 | inactive
SCAMP5 (GeneID 192683) | -0.42 | inactive
SCAMP5 (GeneID 192683) | -0.52 | inactive
SCAMP5 (GeneID 192683) | -0.25 | inactive
CEP15 (GeneID 57415) | 0.88 | inactive
CEP15 (GeneID 57415) | 1.19 | inactive
CEP15 (GeneID 57415) | 0.35 | inactive
CEP15 (GeneID 57415) | -0.19 | inactive
ZDHHC11 (GeneID 79844) | -0.42 | inactive
ZDHHC11 (GeneID 79844) | -0.57 | inactive
ZDHHC11 (GeneID 79844) | -0.12 | inactive
ZDHHC11 (GeneID 79844) | 0.03 | inactive
SPOPL (GeneID 339745) | 0.2 | inactive
SPOPL (GeneID 339745) | -0.51 | inactive
SPOPL (GeneID 339745) | -0.16 | inactive
SPOPL (GeneID 339745) | 0.56 | inactive
RAD54L2 (GeneID 23132) | 0.15 | inactive
RAD54L2 (GeneID 23132) | 0.88 | inactive
RAD54L2 (GeneID 23132) | -0.12 | inactive
RAD54L2 (GeneID 23132) | 0 | inactive
RCOR2 (GeneID 283248) | -0.49 | inactive
RCOR2 (GeneID 283248) | -1.41 | inactive
RCOR2 (GeneID 283248) | -0.67 | inactive
RCOR2 (GeneID 283248) | 0.11 | inactive
PIK3AP1 (GeneID 118788) | 0.62 | inactive
PIK3AP1 (GeneID 118788) | 1.48 | inactive
PIK3AP1 (GeneID 118788) | 0.51 | inactive
PIK3AP1 (GeneID 118788) | 1.54 | inactive
FAU (GeneID 2197) | 0.57 | inactive
FAU (GeneID 2197) | 2.71 | inactive
FAU (GeneID 2197) | -0.49 | inactive
FAU (GeneID 2197) | 0.99 | inactive
UPK3B (GeneID 105375355) | -0.22 | inactive
UPK3B (GeneID 105375355) | 0.18 | inactive
UPK3B (GeneID 105375355) | 0.38 | inactive
RAD51D (GeneID 5892) | 0.21 | inactive
RAD51D (GeneID 5892) | 0.38 | inactive
RAD51D (GeneID 5892) | -0.05 | inactive
RAD51D (GeneID 5892) | 0.82 | inactive
APBB3 (GeneID 10307) | -1.08 | inactive
APBB3 (GeneID 10307) | -0.7 | inactive
APBB3 (GeneID 10307) | -1.02 | inactive
APBB3 (GeneID 10307) | -0.61 | inactive
PHF11 (GeneID 51131) | -1.12 | inactive
PHF11 (GeneID 51131) | -0.35 | inactive
PHF11 (GeneID 51131) | -0.77 | inactive
PHF11 (GeneID 51131) | 0.99 | inactive
RPA4 (GeneID 29935) | 1.68 | inactive
RPA4 (GeneID 29935) | 1.12 | inactive
RPA4 (GeneID 29935) | -0.18 | inactive
RPA4 (GeneID 29935) | 0.31 | inactive
TPI1 (GeneID 7167) | 1.61 | inactive
TPI1 (GeneID 7167) | 1.56 | inactive
TPI1 (GeneID 7167) | 1.46 | inactive
TPI1 (GeneID 7167) | 2.49 | inactive
IARS2 (GeneID 55699) | 0.56 | inactive
IARS2 (GeneID 55699) | -0.12 | inactive
IARS2 (GeneID 55699) | 1.14 | inactive
IARS2 (GeneID 55699) | 0.02 | inactive
TMEM18 (GeneID 129787) | 0.1 | inactive
TMEM18 (GeneID 129787) | -1.1 | inactive
TMEM18 (GeneID 129787) | 4.11 | active
TMEM18 (GeneID 129787) | 2.62 | inactive
C1QTNF7 (GeneID 114905) | 0.34 | inactive
C1QTNF7 (GeneID 114905) | -0.79 | inactive
C1QTNF7 (GeneID 114905) | 0.51 | inactive
C1QTNF7 (GeneID 114905) | -0.5 | inactive
HMX2 (GeneID 3167) | -0.17 | inactive
HMX2 (GeneID 3167) | 0.91 | inactive
HMX2 (GeneID 3167) | 0.09 | inactive
HMX2 (GeneID 3167) | 0.28 | inactive
MYO5C (GeneID 55930) | 0.41 | inactive
MYO5C (GeneID 55930) | 0 | inactive
MYO5C (GeneID 55930) | -0.01 | inactive
MYO5C (GeneID 55930) | 0.38 | inactive
TMEM187 (GeneID 8269) | -1.54 | active
TMEM187 (GeneID 8269) | -0.33 | inactive
TMEM187 (GeneID 8269) | -1.11 | inactive
MKNK2 (GeneID 2872) | -0.66 | inactive
MKNK2 (GeneID 2872) | 0.37 | inactive
MKNK2 (GeneID 2872) | 0.21 | inactive
MKNK2 (GeneID 2872) | 0.3 | inactive
DACT3 (GeneID 147906) | 0.84 | inactive
DACT3 (GeneID 147906) | 1.93 | inactive
DACT3 (GeneID 147906) | 0.44 | inactive
DACT3 (GeneID 147906) | 0.83 | inactive
MMEL1 (GeneID 79258) | 1.22 | inactive
MMEL1 (GeneID 79258) | 0.66 | inactive
MMEL1 (GeneID 79258) | 0.58 | inactive
MMEL1 (GeneID 79258) | -0.79 | inactive
VWA1 (GeneID 64856) | -1.24 | inactive
VWA1 (GeneID 64856) | -0.99 | inactive
VWA1 (GeneID 64856) | -1.16 | inactive
VWA1 (GeneID 64856) | -1.1 | inactive
KRTAP10-7 (GeneID 386675) | -0.47 | inactive
KRTAP10-7 (GeneID 386675) | 0.54 | inactive
KRTAP10-7 (GeneID 386675) | 1.37 | inactive
KRTAP10-7 (GeneID 386675) | -1.15 | inactive
TTC4 (GeneID 7268) | 0.55 | inactive
TTC4 (GeneID 7268) | 0.51 | inactive
TTC4 (GeneID 7268) | 1.91 | inactive
TTC4 (GeneID 7268) | 2.19 | inactive

Reformatted: results already given
{"gene": "EIF2B3 (GeneID 8891)", "TNF reporter robust z-score": -0.53, "Outcome": "inactive"}
{"gene": "EIF2B3 (GeneID 8891)", "TNF reporter robust z-score": -0.68, "Outcome": "inactive"}
{"gene": "EIF2B3 (GeneID 8891)", "TNF reporter robust z-score": -0.88, "Outcome": "inactive"}
{"gene": "EIF2B3 (GeneID 8891)", "TNF reporter robust z-score": -1.31, "Outcome": "inactive"}
{"gene": "SCAMP5 (GeneID 192683)", "TNF reporter robust z-score": -0.82, "Outcome": "inactive"}
{"gene": "SCAMP5 (GeneID 192683)", "TNF reporter robust z-score": -0.42, "Outcome": "inactive"}
